The values that follow come from PubChem BioAssay AID2685 (National Center for Advancing Translational Sciences (NCATS), 2010).

SMILES strings stand for the structures. This is one part of the list. These are further read-outs of the screen, such as a control signal, another cell line or another target. No call is given for them. Compounds called inactive in the main read-out are mostly missing here. Potencies come from curve fits of mixed quality, noted in brackets.

As usually defined, the AC50 is the concentration giving half of the maximal activity seen.

The assay can be described thus: qHTS Assay for Lipid Storage Modulators in Drosophila S3 Cells.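 On cell number change: cells counted by Cell Tracker Red CMTPX staining in the red channel.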 The settings on record: BODIPY lipid droplet fluorescence, 18-24 h; for cell number change: measured here: cell count max response, cells fed with added oleic acid. The method in brief:
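Laser-scanning cytometry quantifies lipid droplet accumulation (500–530 nm total intensity; droplet/cell object ratio) in oleic acid-fed (400 uM added) Drosophila S3 cells treated with a concentration series. 20 uM Triacsin C defined 100% inhibition.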
(In qHTS, concentration-response curves come from the screen itself.)

Setting [1] is: measured here: lipid fluorescence (Fed channel) AC50, cells fed with added oleic acid.
Where [2] appears, read: measured here: cell number channel AC50, cells fed with added oleic acid.

On to `CNS(=O)(=O)c1ccc(N=Cc2c(O)n(-c3cccc(C)c3)c(=O)[nH]c2=O)cc1`, for which the cell number change was -12.7%. Besides, under setting [1], the concentration at half-maximal activity (AC50) was 3.66 µM [falling, full curve].

With `COc1cc2c(cc1O)CC1c3c(cc(O)c(OC)c3-2)CCN1C` (stereo unspecified), the cell number change came out at 23.9%. Also, the AC50 under setting [1] was 13 µM [rising, single point].

In the case of `CCC(NC(=O)OC(C)(C)C)C(=O)Oc1cc(C)cc2oc(=O)c3c(c12)CCC3` (stereo unspecified), the cell number change is 9.35%. For the same compound, under setting [1], the half-maximal activity concentration (AC50) is 23.1 µM [rising, single point].

With `CC12CCC3C(CC=C4CC(O)CCC43C)C1C/C(=C\c1ccccc1F)C2=O` (stereo unspecified), the cell number change is -25.2%. The AC50 under setting [1] is 18.4 µM [falling, single point].

With `CN1CCN(Cc2ccc(Br)s2)CC1`, the cell number change was determined as 3.59%.

For `CC(=NCCCN1CCOCC1)c1c(O)[nH]c(=O)[nH]c1=O`, the cell number change is -18.6%. Under setting [1], the AC50 was 0.058 µM [falling, full curve, poor fit].

With `COC(=O)C1=C(c2ccc(F)cc2F)C[C@@H]2CC[C@H]1N2C(=O)N1CCOCC1`, the cell number change was -5.16%. For the same compound, the AC50 under setting [1] is 7.31 µM [rising, single point].

Consider `COCCNCCOc1ccc(C(C)(C)c2ccccc2)cc1`, for which the cell number change was -66.7%. Also, under setting [2], the AC50 was 1.64 µM [falling, full curve].

Consider `O=P(c1ccccc1)(c1ccccc1)N1CCCCC1`, for which the cell number change is -4.58%. Also, the AC50 under setting [1] was 29.1 µM [falling, single point].

On to `COC(=O)C1=C(c2ccc(-c3ccccc3)c(F)c2)C[C@@H]2CC[C@H]1N2C(=O)N1CCC(O)CC1`, for which the cell number change was determined as 12%. Under setting [1], the AC50 is 29.1 µM [falling, single point].

`COc1ccc(CCNCc2ccc(F)cc2)cc1OC`: the cell number change came out at 45.1%. For the same compound, the AC50 under setting [2] is 25.9 µM [rising, single point].

In the case of `COc1cccc(-n2c(CN3CCOCC3)nc3ccc([N+](=O)[O-])cc3c2=O)c1`, the cell number change was 17.1%. In addition, the AC50 under setting [1] was 3.66 µM [rising, partial curve].

On to `CCC(C)NC(=O)c1c(N)n(CC2CCCO2)c2nc3ccccc3nc12` (stereo unspecified), for which the cell number change is -50.1%. In addition, the AC50 under setting [2] was 20.6 µM [falling, single point]. Further, under setting [1], the AC50 is 29.1 µM [falling, single point].

Turning to `O=C(c1ccccc1)c1ccc(N=Nc2c(O)[nH]c(=O)[nH]c2=O)cc1`, under setting [2], the AC50 is 1.3 µM [rising, full curve, poor fit].

As to `COC(=O)C1=C(c2cccc(C#N)c2)C[C@@H]2CC[C@H]1N2C(=O)NC1Cc2ccccc2C1`, the cell number change is -2.64%. Further, under setting [2], the concentration at half-maximal activity (AC50) was 2.06 µM [falling, partial curve, poor fit]. Further, the AC50 under setting [1] is 2.06 µM [falling, partial curve].

Consider `Cc1nc2ncnn2c(C)c1CCC(=O)N1CCC2(CC1)OCCO2`, for which the AC50 is, setting by setting: under setting [2], 0.259 µM [falling, partial curve, poor fit]; under setting [1], 0.231 µM [falling, full curve, poor fit].

On to `COc1ccc(C(CNC(=O)CCc2ccsc2)N(C)C)cc1` (stereo unspecified), for which the cell number change was -18.4%.

`CC(=O)N1CCN(CCN=Cc2c(O)n(-c3ccc(F)cc3)c(=S)[nH]c2=O)CC1`: the cell number change is -29.2%. The AC50 under setting [2] was 0.326 µM [falling, full curve, poor fit]. Moreover, under setting [1], the AC50 was 4.61 µM [falling, full curve, poor fit].

In the case of `CC1(C)N=C(c2ccccc2)[C@@H]2C(c3ccc([N+](=O)[O-])cc3)N21` (stereo partly specified), the cell number change came to 19.6%. For the same compound, under setting [2], the AC50 was 6.51 µM [rising, partial curve, poor fit].

With `Cn1cc(C(=O)OCC(=O)N2CCCCC2)c2ccccc21`, the cell number change is -6.83%. Under setting [1], the concentration at half-maximal activity (AC50) is 2.59 µM [rising, partial curve, poor fit].

Turning to `NC(CC(=O)O)C1CCCCC1` (stereo unspecified), the cell number change was -14%. Under setting [1], the AC50 was 0.00411 µM [falling, full curve, poor fit].

For the compound `COP(=O)(NC(=O)C(Cl)(Cl)Cl)OC`, the cell number change amounted to 13.6%. In addition, the AC50 under setting [1] is 4.61 µM [falling, single point].

`CCN1C[C@]2(CO)CC[C@H](OC)[C@@]34C2[C@H](OC)[C@@](O)(C13)[C@@]1(O)C[C@H](OC)[C@H]2C[C@@H]4[C@@H]1[C@H]2OC`: the cell number change was determined as 30.6%. Moreover, under setting [2], the AC50 is 0.259 µM [rising, full curve, poor fit].

Regarding `COc1ccc(OC)c(NP(=O)(Oc2ccccc2)Oc2ccccc2)c1`, the cell number change is 16.3%.

For the compound `COC(=O)C1=C(c2c(C)noc2C)C[C@@H]2CC[C@H]1N2C(=O)N1CCc2cc(OC)c(OC)cc2C1`, the cell number change was found to be 7.06%. Further, the AC50 under setting [2] was 0.651 µM [falling, full curve]. Also, the AC50 under setting [1] was 0.146 µM [rising, full curve].

In the case of `CCCCOC(=O)COc1cc(C)cc2oc(=O)c3c(c12)CCC3`, the cell number change is 36.5%. In addition, under setting [2], the concentration at half-maximal activity (AC50) was 29.1 µM [rising, single point]. For the same compound, under setting [1], the AC50 is 0.206 µM [falling, full curve].

`COc1ccc(-c2nc3ccccc3c(=O)n2-c2nccs2)cc1`: the AC50 under setting [1] was 1.64 µM [falling, full curve].

For the compound `Cc1cccc(OP(=O)(NCc2ccccc2)Oc2cccc(C)c2)c1`, the cell number change was -16.8%. The AC50 under setting [1] is 13 µM [falling, single point].

With `COc1ccc(N2C(=O)NC(=O)/C(=C\c3ccc([N+](=O)[O-])s3)C2=O)cc1`, the cell number change is -13.7%. Further, under setting [1], the AC50 is 16.4 µM [falling, single point].

For `O=c1c2ccccc2nc(-c2ccccc2)n1-c1ccccc1O`, the cell number change is -8.84%.

With `COc1ccc(CCNC(C)CCc2ccc(OC)cc2)cc1` (stereo unspecified), the cell number change was -28.6%. Besides, the AC50 under setting [2] is 4.11 µM [falling, full curve, poor fit]. Besides, the AC50 under setting [1] was 4.61 µM [rising, single point].

Take `O=C(c1ccccc1F)c1cn(Cc2ccc(F)cc2)c2ccccc12`: the cell number change is 67.6%. Also, the half-maximal activity concentration (AC50) under setting [2] was 32.6 µM [rising, single point]. Besides, the AC50 under setting [1] was 29.1 µM [rising, single point].

As for `COc1ccc(S(=O)(=O)Cc2ccc(C(=O)N3CCC4(CC3)OCCO4)o2)cc1`, the concentration at half-maximal activity (AC50) was 2.31 µM [rising, partial curve] under setting [2] and 6.51 µM [rising, single point] under setting [1].

As for `COc1ccc(CCNC(=O)c2c(N)n(CCN3CCOCC3)c3nc4ccccc4nc23)cc1`, the cell number change was -61%. Further, under setting [2], the AC50 was 29.1 µM [falling, single point]. Also, the concentration at half-maximal activity (AC50) under setting [1] was 6.51 µM [rising, single point].

Take `CCCCN(CC)CCNS(=O)(=O)c1ccc2c(c1)oc(=O)n2C`: under setting [2], the AC50 was 0.116 µM [falling, full curve, poor fit].
